Measured values: patent US7320804B2, “Cough depressant composition containing iron for angiotensin-converting enzyme inhibitor inducing cough” (Samsung Life Public Welfare Foundation Samsund Medical …, priority 2000, dated 2008)
Where two headings read alike, the source gives them in different places.

Conditions: for Ferritin concentration: pretreatment 68.15 ± 32.86

SMILES: O=S(=O)([O-])[O-].[Fe+2] [Iron, ferrous sulphate]
- Difference in hemoglobin, hematocrit, iron concentration, TIBC and ferritin concentration between iron taking group and placebo taking group (in words) (blood samples before and after treatment): no significant difference
- Hemoglobin (posttreatment, after 4 weeks of iron, pretreatment 13.43 ± 0.81): 13.63 ± 0.60 mg/dL
- Hematocrit (posttreatment, after 4 weeks of iron, pretreatment 39.58 ± 2.65): 40.78 ± 2.51%
- Ferritin concentration (posttreatment, after 4 weeks of iron): 86.03 ± 25.78 mg/dL
- Ferritin concentration (posttreatment, after 4 weeks of iron, listed as iron): 86.03 ± 25.78 mg/dL
- Iron concentration (posttreatment, after 4 weeks of iron, pretreatment 74.75 ± 10.53): 83.75 ± 16.07 mg/dL
- TIBC (total iron binding capacity) (posttreatment, after 4 weeks of iron, pretreatment 312.5 ± 28.1): 320.3 ± 11.9 mg/dL
